# Reference: PubChem BioAssay AID504467 (National Center for Advancing Translational Sciences (NCATS), 2011)
# The campaign covered roughly 330,000 compounds. About 7,700 (2.3%) were called active. Inconclusive means that the source gave no clear call. Such entries were picked first, then a sample of the others. Calls come from the whole dose curve; as a rule, active = well fitted inhibition curve with a large enough effect; inconclusive = small, poorly fitted or top-dose-only effect, or effect the other way; inactive = flat fitted curve, though single readings scatter. Potencies of inconclusive entries are doubtful fits and often do not repeat.
# Test: qHTS screen for small molecules that inhibit ELG1-dependent DNA repair in human embryonic kidney (HEK293T) cells expressing luciferase-tagged ELG1; note: nearly all actives have a fitted effect of over 55% in size
# Details: HEK293T ELG1-luciferase reporter, luminescence, 16 h, DNA damage induced by 5-fluorouridine; activity change, negative = inhibition: at 46.1 µM (top of the series)
# Summary of the method: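 5-Fluorouridine DNA damage + compound/DMSO, 2,000 cells/well, 16 h, 37 °C/5% CO2. ONE-Glo, 30 min RT, luminescence. Readout = decrease in reporter signal.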
# % is set by controls: 0 for no effect and ±100 for the full control effect; potency is the fitted concentration of half-maximal effect.
SMILES,Potency,"activity change, negative = inhibition"
CC1CCC(C(C)C)C(=O)/C1=C/c1ccc(N)cc1 (stereo unspecified),"inconclusive: 20.6 µM [activator, partial curve]",–
CCOc1ccc(NC(=O)c2cccc(-n3cccc3)c2)cc1S(=O)(=O)N1CCOCC1,"inconclusive: 20.6 µM [inhibitor, single point]",–
CC(=O)Nc1cccc(NC(=O)CSc2nnc3ccc(-c4ccccn4)nn23)c1,"inconclusive: 8.2 µM [inhibitor, partial curve]",–
O=C(Cc1ccc(F)cc1)c1ccc(O)cc1O,"inconclusive: 20.6 µM [activator, single point]",–
COc1cccc(C=Nc2cccc3c(=O)[nH][nH]c(=O)c23)c1O,"inconclusive: 29.1 µM [activator, single point]",–
Cc1ccc(-n2c(C)cc(=O)cc2C)c(C)c1,"inconclusive: 25.9 µM [activator, partial curve, poor fit]",–
COc1cc(NC(=S)NCCC(c2ccccc2)c2ccccc2)c(OC)cc1Cl,–,inactive: -19.9%
CCNc1nc(SCCOc2ccc(Cl)cc2Cl)nc(N(C)C)n1,–,inactive: -6.36%
CCCCC(C(=O)O)C(C)CC(=O)Nc1nccs1 (stereo unspecified),–,inactive: 23.7%
Cc1ccc(S(=O)(=O)NCCC(=O)NNC(=O)c2ccccc2Cl)cc1C,–,inactive: 21.7%
Nc1nc(-c2ccc(F)cc2)cc(C(F)(F)F)n1,–,inactive: 0.25%
COCCNC(=O)c1ccc(-n2c(SCc3ccncc3)nc3ccccc3c2=O)cc1,"inconclusive: 7.3 µM [inhibitor, partial curve]",–
Oc1ccc(N=Nc2n[nH]c(-c3ccc(Cl)cc3)n2)cc1,"inconclusive: 29.1 µM [inhibitor, partial curve, poor fit]",–
CC(C)c1ccc(NC(=O)C2CC2c2ccccc2)cc1 (stereo unspecified),–,inactive: -0.518%
O=C1NC(=Nc2ccccc2Cl)S/C1=C\c1cc([N+](=O)[O-])ccc1O,–,inactive: -0.586%
Cc1ccc(Cn2c(=O)sc3ccccc3c2=O)cc1,–,inactive: 18.4%
COc1ccc(C2=NOC(Cn3nc(C(=O)NCc4ccc(C)cc4)cc3-c3ccccc3)C2)cc1 (stereo unspecified),"inconclusive: 35.5 µM [inhibitor, single point]",–
CCCCNC(=O)c1c(N)n(/N=C/c2ccccn2)c2nc3ccccc3nc12,–,inactive: -0.93%
O=C(NCC(c1ccco1)N1CCCC1)c1cccc(S(=O)(=O)Nc2ccc(F)cc2)c1 (stereo unspecified),–,inactive: 0%
CC(C)(C)OC(=O)NCCCCCNC(=O)c1nc[nH]c1C(=O)N1CCN(C(=O)OC(C)(C)C)CC1,"inconclusive: 18.3 µM [inhibitor, single point]",–
CC(C)(C)c1ccc(-c2noc(C(=O)NN)n2)cc1,"inconclusive: 29.1 µM [inhibitor, single point]",–

# Full records, quoted from the list:
# COc1cc(NC(=S)NCCC(c2ccccc2)c2ccccc2)c(OC)cc1Cl is entered as activity change, negative = inhibition: inactive: -19.9%
# O=C(NCC(c1ccco1)N1CCCC1)c1cccc(S(=O)(=O)Nc2ccc(F)cc2)c1 (stereo unspecified) is entered as activity change, negative = inhibition: inactive: 0%
